For part of these data: Negatives hold for the conditions tested. Tags and fusion partners may be left off the protein sequences shown.
Columns and labels:
Test in all cases: activity in cells
RORα1 (Homo sapiens) = biological target: T1, RORα1 (Homo sapiens) (UniProt P35398); conditions: (IκBα-RORE)2-TK-Luc in PAC1A cells, strong induction; protein in cells; protein details: pSG5-hRORα1 expression vector; only the site is given
T1 sequence (looked up, limits assumed): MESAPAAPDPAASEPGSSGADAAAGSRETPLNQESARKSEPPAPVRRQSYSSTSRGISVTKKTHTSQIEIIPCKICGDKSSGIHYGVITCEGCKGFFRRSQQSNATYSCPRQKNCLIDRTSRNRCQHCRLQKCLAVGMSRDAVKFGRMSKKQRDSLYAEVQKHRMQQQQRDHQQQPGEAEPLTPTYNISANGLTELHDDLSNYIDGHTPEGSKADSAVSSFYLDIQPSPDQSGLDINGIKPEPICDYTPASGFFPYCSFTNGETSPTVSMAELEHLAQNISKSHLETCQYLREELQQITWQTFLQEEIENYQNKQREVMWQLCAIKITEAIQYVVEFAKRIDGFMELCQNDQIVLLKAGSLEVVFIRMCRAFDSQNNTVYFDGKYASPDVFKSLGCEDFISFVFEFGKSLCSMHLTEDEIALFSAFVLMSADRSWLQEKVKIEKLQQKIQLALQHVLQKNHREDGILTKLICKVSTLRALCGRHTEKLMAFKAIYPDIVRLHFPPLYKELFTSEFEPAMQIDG

RORα2 (Homo sapiens) = test system: T2, RORα2 (Homo sapiens); conditions: (IκBα-RORE)2-TK-Luc in PAC1A cells, no induction; protein in cells; protein details: pSG5-hRORα2 expression vector; only the site is given
T2 sequence (looked up, limits assumed): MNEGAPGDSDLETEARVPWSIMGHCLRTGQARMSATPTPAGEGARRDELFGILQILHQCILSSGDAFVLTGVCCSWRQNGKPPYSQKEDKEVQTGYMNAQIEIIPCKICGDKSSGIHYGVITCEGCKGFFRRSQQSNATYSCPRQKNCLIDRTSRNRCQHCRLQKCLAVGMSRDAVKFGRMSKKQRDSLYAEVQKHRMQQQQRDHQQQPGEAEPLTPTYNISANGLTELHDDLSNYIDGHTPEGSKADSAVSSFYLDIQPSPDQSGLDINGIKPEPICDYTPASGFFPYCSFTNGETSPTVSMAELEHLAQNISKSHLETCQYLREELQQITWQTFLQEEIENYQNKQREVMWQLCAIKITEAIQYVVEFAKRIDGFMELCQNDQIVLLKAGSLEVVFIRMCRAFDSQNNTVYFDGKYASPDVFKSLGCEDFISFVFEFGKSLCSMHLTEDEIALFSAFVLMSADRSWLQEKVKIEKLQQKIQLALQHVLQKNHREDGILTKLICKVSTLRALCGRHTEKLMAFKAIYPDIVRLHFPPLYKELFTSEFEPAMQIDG

RORα3 (Homo sapiens) = test system: T3, RORα3 (Homo sapiens); conditions: (IκBα-RORE)2-TK-Luc in PAC1A cells, no induction; protein in cells; protein details: pSG5-hRORα3 expression vector; only the site is given
T3 sequence (looked up, limits assumed): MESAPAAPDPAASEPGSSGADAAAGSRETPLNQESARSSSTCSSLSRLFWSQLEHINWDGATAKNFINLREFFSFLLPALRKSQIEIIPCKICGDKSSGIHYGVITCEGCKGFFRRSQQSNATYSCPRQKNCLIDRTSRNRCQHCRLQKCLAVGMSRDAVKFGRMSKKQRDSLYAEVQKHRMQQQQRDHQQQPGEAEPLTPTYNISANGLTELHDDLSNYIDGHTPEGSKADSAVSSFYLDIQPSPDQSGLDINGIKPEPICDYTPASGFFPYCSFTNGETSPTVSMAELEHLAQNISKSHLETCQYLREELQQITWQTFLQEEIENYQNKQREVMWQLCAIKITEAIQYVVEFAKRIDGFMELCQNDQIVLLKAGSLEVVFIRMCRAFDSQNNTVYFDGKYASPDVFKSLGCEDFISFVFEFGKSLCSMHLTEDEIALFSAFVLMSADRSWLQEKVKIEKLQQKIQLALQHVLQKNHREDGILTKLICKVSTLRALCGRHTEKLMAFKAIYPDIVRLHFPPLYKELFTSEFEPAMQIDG

GAGCACAATGTAGGTCAGATAG (double strand) [IκBα-RORE]
activity on this sequence (RORα1 (Homo sapiens)): active | activity on this sequence (RORα2 (Homo sapiens)): not active | activity on this sequence (RORα3 (Homo sapiens)): not active

Source: patent publication US20050260575, “Method for identifying substances useful for treating inflammation using the response element to the ikbalpha ror receptor” (published 2005)
